Values from PubChem BioAssay AID1259254 (NCATS, 2017)
The whole screen tested about 59,000 reagents; this is an unselected part. About 1,550 of them (2.6%) were called active. 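G2 share is only a proxy for re-replication; each gene was hit by three separate siRNAs, and active genes were retested.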 Reagents against one gene are numbered here. Not all columns of the deposit are shown. Not stated in the record: the amount of reagent.

Assay: 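Finding genes that stop cells copying their DNA twice in one cycle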 (primary screen)
System: human HCT116 colorectal cancer cells
Reagent: single siRNA against human genes
Time to read-out: 3 days
Measurement: 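Imaged Hoechst DNA stain sorts each cell into a cycle phase by DNA amount; per plate, G2 fraction set to 0% for non-targeting and 100% for GMNN siRNA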
Direction: G2 robust z-score: higher = more G2 cells, more excess DNA replication
Hit rule: 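Active siRNAs have a G2 robust z of 5 or more median absolute deviations over the median, which in these data means about 38% or higher of GMNN control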

After knock-down of SLC49A3 #1, the screen gave G2 robust z-score -0.549; inactive.
Depletion of SLC49A3 #2 gave: G2 robust z-score 1.92; inactive.
For SLC49A3 #3, the entry reads G2 robust z-score -0.119; inactive.
Depletion of KIAA0586 #1 resulted in: G2 robust z-score -0.355; inactive.
KIAA0586 #2 gave G2 robust z-score 0.384; inactive.
KIAA0586 #3 scored G2 robust z-score -0.0347; inactive.
With knock-down of SMPX #1, the record shows G2 robust z-score -0.319; inactive.
Silencing of SMPX #2 came out at: G2 robust z-score -0.982; inactive.
Against SMPX #3 the deposit lists G2 robust z-score 2.53; inactive.
For ANAPC15 #1, the entry reads G2 robust z-score 1.24; inactive.
For ANAPC15 #2 the deposit lists G2 robust z-score 2.5; inactive.
For ANAPC15 #3, the values are G2 robust z-score -0.747; inactive.
CTDNEP1 #1 gave G2 robust z-score 0.681; inactive.
Knock-down of CTDNEP1 #2 resulted in: G2 robust z-score -0.0256; inactive.
Against CTDNEP1 #3, the values are G2 robust z-score -0.816; inactive.
After knock-down of NXF1 #1 the results were G2 robust z-score 1.29; inactive.
NXF1 #2 gave G2 robust z-score 5.04; active.
With knock-down of NXF1 #3 the results were G2 robust z-score 0.691; inactive.
With knock-down of IFT70A #1, the screen gave G2 robust z-score 5.74; active.
Against IFT70A #2, the values are G2 robust z-score 0.566; inactive.
For IFT70A #3, the entry reads G2 robust z-score 0.653; inactive.
Depletion of CYP4F22 #1 came out at: G2 robust z-score 7.02; active.
Against CYP4F22 #2 the deposit lists G2 robust z-score -0.789; inactive.
With knock-down of CYP4F22 #3, the screen gave G2 robust z-score 1.57; inactive.

2 of these entries, reformatted.
CTDNEP1 #3
- G2 robust z-score: -0.816
- call: inactive

NXF1 #1
- G2 robust z-score: 1.29
- call: inactive
